This is an account of results in publication PMC12042775.

These are yes or no findings as the source states them, for the method shown. Binding seen in cells or lysates may run through a third protein. Some entries that bind do so weakly or less than the wild type.

For this test, the target named is integrin β1 (human (endogenous in PC3)), P05556. The test is described as follows: co-IP; lysate of PC3-derived sEVs in lysis buffer with 0.5% Nonidet P40 substitute; anti-integrin β1 cross-linked (BS3) to Protein G Dynabeads, overnight; blotted with anti-integrin α6, α3 or CD151; sEVs before and after treatment with MβCD (cholesterol depletion). As to conditions: remark: other sources report otherwise.

B1: CD151, P48509 1-253 (protein)
chain: MGEFNEKKTTCGTVCLKYLLFTYNCCFWLAGLAVMAVGIWTLALKSDYISLLASGTYLATAYILVVAGTVVMVTGVLGCCATFKERRNLLRLYFILLLIIFLLEIIAGILAYAYYQQLNTELKENLKDTMTKRYHQPGHEAVTSAVDQLQQEFHCCGSNNSQDWRDSEWIRSQEAGGRVVPDSCCKTVVALCGQRDHASNIYKVEGGCITKLETFIQEHLRVIGAVGIGIACVQVFGMIFTCCLYRSLKLEHY
For B1, the binding result is listed as “binds”.
